For one molecule, binding results are on record in patent US20220064246A1.

Results are given in words; binding and its absence hold for the method and conditions named. Some binding calls cover weakened binding; strength is not graded here.

The assay addresses T1, EBI3 (Epstein-Barr virus induced gene 3) subunit (IL-27β), natural, produced by mouse DC cells (CD11c+ cells) (mouse) (UniProt O35228).
T1 sequence (looked up): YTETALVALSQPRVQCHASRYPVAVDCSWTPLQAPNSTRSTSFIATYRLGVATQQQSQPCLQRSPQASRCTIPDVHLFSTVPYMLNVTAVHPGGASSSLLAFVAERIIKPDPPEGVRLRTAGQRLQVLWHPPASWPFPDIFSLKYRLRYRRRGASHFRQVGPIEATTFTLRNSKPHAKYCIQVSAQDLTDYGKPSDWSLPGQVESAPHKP
Nature of the assay: sandwich ELISA (EBI3 capture, p40 detection) on supernatant of stimulated mouse CD11c+ DC cells. For orientation: An ELISA detects its analyte on a solid surface through an enzyme-linked reagent.

B1: p40 subunit (subunit beta of IL-12, IL-12β), natural, produced by mouse DC cells (CD11c+ cells) (ligand, UniProt P43432 23-335, looked up)
chain: MWELEKDVYVVEVDWTPDAPGETVNLTCDTPEEDDITWTSDQRHGVIGSGKTLTITVKEFLDAGQYTCHKGGETLSHSHLLLHKKENGIWSTEILKNFKNKTFLKCEAPNYSGRFTCSWLVQRNMDLKFNIKSSSSSPDSRAVTCGMASLSAEKVTLDQRDYEKYSVSCQEDVTCPTAEETLPIELALEARQQNKYENYSTSFFIRDIIKPDPPKNLQMKPLKNSQVEVSWEYPDSWSTPHSYFSLKFFVRIQRKKEKMKETEEGCNQKGAFLVEKTSTEVQCKGGNVCVQAQDRYYNSSCSKWACVPCRVRS
As to B1, the binding result is “binds”.
